Experimental data published in article PMC5972614.
These are yes or no findings as the source states them, for the method shown. For some assays here: Binding seen in cells or lysates may run through a third protein. Some results given as binding are weak or reduced against the parent protein; the word gives no strength. Where a sequence is shown, tags or fusion partners need not be part of it.

B1: AtRAF2 (Arabidopsis Rubisco assembly factor 2), GAL4 yeast two-hybrid fusions (AD–AtRAF2; BD fusion) (protein, UniProt Q9LU63 1-220)
chain: MAATSSSPPCNISASSLLLRQPSRSILKVFGLLPPVSRNNRKLGRLTVTRSNLAQDFLGDFGARDPYPEEIASQFGDKVLGCQSTEHKILIPNASVLSLSQLQCSPVSSSQPPLSGDDARTLLHKVLGWSIVDNEAGGLKIRCMWKVRDFGCGVELINRIHKVAEASGHYPSLHLESPTQVRAELFTSSIGGLSMNDFIMAAKIDDIKTSDLSPRKRAWA
B2: AtRAF2 BiFC fusions (pSPYNE–35S and pSPYCE–35S) (protein, UniProt Q9LU63 51-220)
chain: SNLAQDFLGDFGARDPYPEEIASQFGDKVLGCQSTEHKILIPNASVLSLSQLQCSPVSSSQPPLSGDDARTLLHKVLGWSIVDNEAGGLKIRCMWKVRDFGCGVELINRIHKVAEASGHYPSLHLESPTQVRAELFTSSIGGLSMNDFIMAAKIDDIKTSDLSPRKRAWA

Key:
[1] = molecular target: AtRAF2 (Arabidopsis Rubisco assembly factor 2), GAL4 yeast two-hybrid fusions (AD–AtRAF2; BD fusion) (Arabidopsis) (UniProt Q9LU63); test: two-hybrid; directed GAL4 yeast two-hybrid (Matchmaker System 3), yeast mating, BD and AD fusions, growth on SD/−WL and SD/−AHLW, 30 °C
[2] = molecular target: AtRAF2 BiFC fusions (pSPYNE–35S and pSPYCE–35S) (Arabidopsis) (UniProt Q9LU63); test: split reporter; BiFC with halves of YFP (pSPYNE–35S, pSPYCE–35S) in agro-infiltrated N. benthamiana leaves, confocal microscopy

Binder | binding [1] | binding [2]
B1 | binds | –
B2 | – | binds
